Measured values taken from patent US20230338340A1, “Methods of Treating Cystic Fibrosis” (The Trustees of Dartmouth College, priority 2020, published 2023).
The match of structure and compound is tentative.

Amino acid sequences for entries named in this document (tags omitted). Residues count along the entry.
UniProt P98082, 33-178 limits assumed: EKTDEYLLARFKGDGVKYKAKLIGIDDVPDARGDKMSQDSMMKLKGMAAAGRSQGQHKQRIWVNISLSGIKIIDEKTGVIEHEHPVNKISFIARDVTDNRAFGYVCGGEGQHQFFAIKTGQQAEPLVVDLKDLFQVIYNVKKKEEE

Key:
[1] = molecular target: CAL PDZ (Homo sapiens, UniProt Q9HD26); assay: CALP fluorescence polarization (FP) competition assay, HTS format with dose-response validation; design: Inhibitory activity CALP at 100 μM: unit not given here
[2] = molecular target: Human-Dab2-DH (Homo sapiens, UniProt P98082); assay: Dab2 FP competition assay via HTS; type: binding; conditions: read-out: Inhibitory activity Dab2 IC50
Protocol: CALP and/or Dab2 inhibition assays were performed in biochemical “mix-and-measure” format in order to evaluate the effects on activation and inhibition of CALP and/or Dab2 by the compounds of the disclosure. Brief assay procedure is provided below. Unless otherwise specified, all of the compounds were obtained from commercial sources.
Dab-2 inhibitors were also identified by FP competition assays via HTS. Human-Dab2-DH, residues 31-191 (Uniprot: P98082), and trDab2-DH (residues 33-178) was subcloned into the pET16b vector via PCR utilizing the restriction enzyme sites of Xhol and BamHI. The construct was designed with a 3C protease cleavage site directly upstream and in-frame with the protein coding sequence. DNA was sequence verified. (0.1 mM) IPTG was used to induce protein expression in E. coli BL21(DE3)RIL cells, after reaching an O.D. of 06. […]
For experiments conducted at the University of Pittsburgh Lab and Drug Discovery Institute, single-dose HTS assays were performed with a library containing ˜220,000 compounds. […] Compound plates containing assay ready 2 μL aliquots of a 1 mM stock solution in DMSO were thawed, reconstituted in FP buffer to a concentration of 30 μM in 3% DMSO, and five μL transferred to low volume assay plates using a Perkin Elmer MDT. […] Plates were read at 1.5-h and 4-h on the Envision multilabel reader.

CCC(C)/C=C/C1=CC2=C(Cl)C(=O)C3(C)OC(=O)C(C(=O)C(C)C(C)O)=C3C2=CO1 (stereo not drawn)
Inhibitory activity CALP at 100 μM ([1]; at 100 μM): −72.96 | IC50 ([1]; read-out: Inhibitory activity CALP IC50): 34.2 µM | IC50 [2]: 7.54 µM
